Binding data for seven molecules are collected here from publication doi:10.1101/2024.05.31.596839.

Residue numbers refer to the chain shown, from its start. No constants are given. Whether binding was seen depends on the method and setting. Some entries that bind do so weakly or less than the wild type.

T1: BoYb (Drosophila) (UniProt Q9VNP5)
T1 sequence: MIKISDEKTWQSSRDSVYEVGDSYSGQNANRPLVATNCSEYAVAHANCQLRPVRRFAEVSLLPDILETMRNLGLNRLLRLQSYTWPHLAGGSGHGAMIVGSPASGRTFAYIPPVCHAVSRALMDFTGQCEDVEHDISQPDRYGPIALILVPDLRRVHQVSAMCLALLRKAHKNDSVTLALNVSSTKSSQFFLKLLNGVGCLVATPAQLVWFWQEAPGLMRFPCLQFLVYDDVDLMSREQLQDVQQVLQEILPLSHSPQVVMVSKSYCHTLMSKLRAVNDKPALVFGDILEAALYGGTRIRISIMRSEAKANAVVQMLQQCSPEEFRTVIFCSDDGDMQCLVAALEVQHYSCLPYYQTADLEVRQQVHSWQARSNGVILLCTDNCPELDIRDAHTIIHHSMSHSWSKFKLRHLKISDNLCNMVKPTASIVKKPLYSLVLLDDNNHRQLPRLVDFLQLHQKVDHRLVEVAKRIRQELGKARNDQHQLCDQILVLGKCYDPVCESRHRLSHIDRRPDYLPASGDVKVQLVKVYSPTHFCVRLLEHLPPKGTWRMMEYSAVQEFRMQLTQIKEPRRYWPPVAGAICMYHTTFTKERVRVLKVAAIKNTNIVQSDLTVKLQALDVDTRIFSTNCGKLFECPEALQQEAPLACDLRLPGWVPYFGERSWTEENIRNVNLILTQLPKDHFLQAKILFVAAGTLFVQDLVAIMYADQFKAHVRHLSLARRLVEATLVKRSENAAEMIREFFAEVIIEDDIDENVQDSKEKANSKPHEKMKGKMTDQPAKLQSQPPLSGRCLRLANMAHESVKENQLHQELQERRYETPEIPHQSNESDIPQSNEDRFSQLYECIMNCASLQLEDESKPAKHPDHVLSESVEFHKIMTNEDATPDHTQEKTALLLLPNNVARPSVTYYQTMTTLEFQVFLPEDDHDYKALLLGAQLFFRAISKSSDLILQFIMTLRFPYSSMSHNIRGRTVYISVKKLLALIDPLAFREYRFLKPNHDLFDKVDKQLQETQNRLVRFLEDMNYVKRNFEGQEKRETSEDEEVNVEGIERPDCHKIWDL

T2: Krimper (Drosophila) (UniProt A1ZAC4)
T2 sequence: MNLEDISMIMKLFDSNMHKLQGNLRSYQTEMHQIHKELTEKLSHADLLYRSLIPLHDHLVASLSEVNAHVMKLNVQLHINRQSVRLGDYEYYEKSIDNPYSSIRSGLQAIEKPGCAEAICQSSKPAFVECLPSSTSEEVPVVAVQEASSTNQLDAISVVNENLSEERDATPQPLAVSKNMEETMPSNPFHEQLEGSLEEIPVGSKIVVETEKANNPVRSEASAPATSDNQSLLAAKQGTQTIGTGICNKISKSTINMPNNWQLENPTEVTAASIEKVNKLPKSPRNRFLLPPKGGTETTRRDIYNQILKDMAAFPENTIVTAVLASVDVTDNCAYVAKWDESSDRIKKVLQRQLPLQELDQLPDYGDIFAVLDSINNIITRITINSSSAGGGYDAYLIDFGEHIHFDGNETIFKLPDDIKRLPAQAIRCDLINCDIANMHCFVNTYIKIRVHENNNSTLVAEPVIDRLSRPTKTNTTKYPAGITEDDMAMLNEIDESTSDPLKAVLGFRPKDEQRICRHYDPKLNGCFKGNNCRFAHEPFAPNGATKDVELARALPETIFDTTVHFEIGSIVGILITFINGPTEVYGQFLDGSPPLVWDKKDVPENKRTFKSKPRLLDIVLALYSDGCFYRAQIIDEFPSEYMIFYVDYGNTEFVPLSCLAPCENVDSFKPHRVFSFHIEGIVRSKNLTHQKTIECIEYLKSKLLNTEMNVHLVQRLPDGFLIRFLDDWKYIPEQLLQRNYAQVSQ

B1: Vret-C eTud1_MUT (domain or fragment, UniProt Q9VCU7 178-691)
chain: FRPPLVTKDDYKRGSLLATNDPIQRYLNVKYEFALERHDIYKLKDETRIPQVVLHFRSGRTIPLSTVAVTEEDKTKSLLEDGVSKCVVCQNWTDTFCKLCKMPFCNASCFADVAEQHKQACGKGEILNLDEKVGRKYPKPGLPPSGSKVRITAFEQTNVVYVRSADIQIDIAYETVLTEVEMLGKDASKLQSTPVCGQIVLYKFEGHMSRAMVLNVDNIKEIYVVFIDFGSVEVTQLERLYECSSYLAGLTCYPVAVKLRGVPRRFVGPNIREVMYELDQSLVFNIKYSSREYDTSKGMQVVVMTEIDINRSLNRLFKTILTPVEPSVSDLGYKEDCLPYIPLHCGKNINVVVMDNTFIQCGFIYCTSIDLAYEVTKMQRDIQEYGEKIAKCATYAPPINELCIAKYEGKWRRGLSVELVGDGYPSILFIDYGNIVPTHVTDIRPYPPQFIFPIMTTQLDLIGVPEKPTDEQIKWLDKNYPIGSVITCSEITFDEETNSYSTRIEKLQEFLSLD
B2: Vret-N RRM_MUT (domain or fragment, UniProt Q9VCU7 1-178)
chain: MESESSQDDWSAFDPMSREYYDQVGNRYTNESGQKLIMEAPLPPKDEKEQRATRQAKYPYLVVPKSSPEVTEKELINFFGRALIKEMEFRRLSRVYFVYFENIASLETAQQRVQREPNLIKCITGRPQKEREITSDPVTSTEPMPTPGPAISATERTPVNHNREVPISTGGQNHPEFF
B3: Vreteno RRM_MUT (full-length) (protein, UniProt Q9VCU7 1-691)
chain: MESESSQDDWSAFDPMSREYYDQVGNRYTNESGQKLIMEAPLPPKDEKEQRATRQAKYPYLVVPKSSPEVTEKELINFFGRALIKEMEFRRLSRVYFVYFENIASLETAQQRVQREPNLIKCITGRPQKEREITSDPVTSTEPMPTPGPAISATERTPVNHNREVPISTGGQNHPEFFRPPLVTKDDYKRGSLLATNDPIQRYLNVKYEFALERHDIYKLKDETRIPQVVLHFRSGRTIPLSTVAVTEEDKTKSLLEDGVSKCVVCQNWTDTFCKLCKMPFCNASCFADVAEQHKQACGKGEILNLDEKVGRKYPKPGLPPSGSKVRITAFEQTNVVYVRSADIQIDIAYYTVLTEVMMLGKDASKLQSTPVCGQIVLYKFEGHMSRAMVLNVDNIKEIYVVFIDFGSVEVTQLERLYECSSYLAGLTCYPVAVKLRGVPRRFVGPNIREVMYELDQSLVFNIKYSSREYDTSKGMQVVVMTEIDINRSLNRLFKTILTPVEPSVSDLGYKEDCLPYIPLHCGKNINVVVMDNTFIQCGFIYCTSIDLAYEVTKMQRDIQEYGEKIAKCATYAPPINELCIAKYEGKWRRGLSVELVGDGYPSILFIDYGNIVPTHVTDIRPYPPQFIFPIMTTQLDLIGVPEKPTDEQIKWLDKNYPIGSVITCSEITFDEETNSYSTRIEKLQEFLSLD
B4: Vreteno RRM_MUT and eTud1_MUT (full-length) (protein, UniProt Q9VCU7 1-691)
chain: B3 chain with Y351E, M358E
B5: Vreteno eTud1_MUT (full-length) (protein, UniProt Q9VCU7 1-691)
chain: B3 chain with E69Y, E74M, E116Y, Y351E, M358E
B6: Ago3_4RK (protein, UniProt Q7PLK0 1-867)
chain: MSGKGNLLSLFNKNAGNMGKSISSKDHEIDSGLDFNNSESSGERLLSSHNIETDLITTLQHVNISVGKGKAKLIDTLKTDDHTSNQFITSESKENITKKTKGPESEAIASENGLFFPDLIYGSKGSSVNIYCNYLKLTTDESKGVFNYEVRFFPPIDSVHLRIKYLNDHKDKLGGTKTFDGNTLYLPILLPNKMTVFISKAEDVELQIRILYKKKEEMRNCTQLYNILFDRVMKVLNYVKFDRKQFDPSRPKIIPLAKLEVWPGYVTAVDEYKGGLMLCCDVSHRILCQKTVLEMLVDLYQQNVEHYQESARKMLVGNIVLTRYNNRTYKINDICFDQNPTCQFEIKTGCTSYVEYYKQYHNINIKDVNQPLIYSIKKSRGIPAERENLQFCLIPELCYLTGLRDEVRSDNKLMREIATFTRVSPNQRQMALNKFYENVSNTPAAQEILNSWGLSLTNNSNKISGRQMDIEQIYFSKISVSAGRSAEFSKHAVTNEMLKVVHLSKWIIIHLRNYRQAATSLLDNMKQACESLGMNISNPTMISLDHDRIDAYIQALRRNITMNTQMVVCICHNRRDDRYAAIKKICCSEIPIPSQVINAKTLQNDLKIRSVVQKIVLQMNCKLGGSLWTVKIPFKNVMICGIDSYHDPSNRGNSVAAFVASINSSYSQWYSKAVVQTKREEIVNGLSASFEIALKMYRKRNGKLPTNIIIYRDGIGDGQLYTCLNYEIPQFEMVCGNRIKISYIVVQKRINTRIFSGSGIHLENPLPGTVVDQHITKSNMYDFFLVSQLVRQGTVTPTHYVVLRDDCNYGPDIIQKLSYKLCFLYYNWAGTVRIPACCMYAHKLAYLIGQSIQRDVAEALSEKLFYL
B7: Ago3Δ1-100 (domain or fragment, UniProt Q7PLK0 101-867)
chain: KGPESEAIASENGLFFPDLIYGSKGSSVNIYCNYLKLTTDESKGVFNYEVRFFPPIDSVHLRIKYLNDHKDKLGGTKTFDGNTLYLPILLPNKMTVFISKAEDVELQIRILYKKKEEMRNCTQLYNILFDRVMKVLNYVKFDRKQFDPSRPKIIPLAKLEVWPGYVTAVDEYKGGLMLCCDVSHRILCQKTVLEMLVDLYQQNVEHYQESARKMLVGNIVLTRYNNRTYKINDICFDQNPTCQFEIKTGCTSYVEYYKQYHNINIKDVNQPLIYSIKKSRGIPAERENLQFCLIPELCYLTGLRDEVRSDNKLMREIATFTRVSPNQRQMALNKFYENVSNTPAAQEILNSWGLSLTNNSNKISGRQMDIEQIYFSKISVSAGRSAEFSKHAVTNEMLKVVHLSKWIIIHLRNYRQAATSLLDNMKQACESLGMNISNPTMISLDHDRIDAYIQALRRNITMNTQMVVCICHNRRDDRYAAIKKICCSEIPIPSQVINAKTLQNDLKIRSVVQKIVLQMNCKLGGSLWTVKIPFKNVMICGIDSYHDPSNRGNSVAAFVASINSSYSQWYSKAVVQTKREEIVNGLSASFEIALKMYRKRNGKLPTNIIIYRDGIGDGQLYTCLNYEIPQFEMVCGNRIKISYIVVQKRINTRIFSGSGIHLENPLPGTVVDQHITKSNMYDFFLVSQLVRQGTVTPTHYVVLRDDCNYGPDIIQKLSYKLCFLYYNWAGTVRIPACCMYAHKLAYLIGQSIQRDVAEALSEKLFYL

One assay deals with T1, BoYb (Drosophila). Briefly: ReLo.
As to B1, the binding entry is on record as “no binding”.
In the case of B2, the binding result is recorded as “no binding”.
Same read-out and setting: the entry for B3 is “binds”; for B4 it is “no binding”.
The same measure, in the same setting: in the case of B5 it was “binds”.

The next assay has as its target T2, Krimper (Drosophila). The assay can be described thus: ReLo.
Consider B6, for which the binding result is “binds”.
Still for that read-out and setting: in the case of B7 it was “no binding”.
